The source of these data is the supplement of paper PMC12819154, “High-throughput peptide-centric local stability assay extends protein–ligand identification to membrane proteins, tissues and bacteria” (Nature Structural & Molecular Biology, 2025).

Protein sequences, listed by entry. Tags and fused reporters are not part of them. Lines headed by an entry give the natural chain unless they say otherwise; changes in a name come on top.
UniProt Q69Z69: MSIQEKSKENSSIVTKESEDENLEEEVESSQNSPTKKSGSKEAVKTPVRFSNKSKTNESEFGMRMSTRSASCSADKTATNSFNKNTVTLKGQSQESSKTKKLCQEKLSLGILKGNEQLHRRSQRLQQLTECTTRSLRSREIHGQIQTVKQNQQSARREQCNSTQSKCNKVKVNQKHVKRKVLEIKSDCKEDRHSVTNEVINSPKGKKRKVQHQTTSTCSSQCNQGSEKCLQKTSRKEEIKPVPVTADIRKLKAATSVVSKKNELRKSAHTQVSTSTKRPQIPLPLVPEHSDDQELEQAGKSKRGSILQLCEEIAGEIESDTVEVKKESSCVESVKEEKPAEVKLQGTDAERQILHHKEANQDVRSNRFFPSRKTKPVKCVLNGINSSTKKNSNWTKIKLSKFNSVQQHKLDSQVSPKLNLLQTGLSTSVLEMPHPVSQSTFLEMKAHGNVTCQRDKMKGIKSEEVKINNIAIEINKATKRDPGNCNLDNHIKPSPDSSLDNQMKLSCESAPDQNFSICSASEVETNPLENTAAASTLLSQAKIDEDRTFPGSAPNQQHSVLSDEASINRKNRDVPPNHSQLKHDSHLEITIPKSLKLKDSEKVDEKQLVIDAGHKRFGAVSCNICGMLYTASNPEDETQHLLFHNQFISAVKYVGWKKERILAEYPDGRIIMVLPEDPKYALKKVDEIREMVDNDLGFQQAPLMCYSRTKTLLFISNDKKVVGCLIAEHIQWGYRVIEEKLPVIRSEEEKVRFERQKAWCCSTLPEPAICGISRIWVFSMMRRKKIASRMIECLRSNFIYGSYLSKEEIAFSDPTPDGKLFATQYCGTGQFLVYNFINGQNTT
UniProt Q66JW3: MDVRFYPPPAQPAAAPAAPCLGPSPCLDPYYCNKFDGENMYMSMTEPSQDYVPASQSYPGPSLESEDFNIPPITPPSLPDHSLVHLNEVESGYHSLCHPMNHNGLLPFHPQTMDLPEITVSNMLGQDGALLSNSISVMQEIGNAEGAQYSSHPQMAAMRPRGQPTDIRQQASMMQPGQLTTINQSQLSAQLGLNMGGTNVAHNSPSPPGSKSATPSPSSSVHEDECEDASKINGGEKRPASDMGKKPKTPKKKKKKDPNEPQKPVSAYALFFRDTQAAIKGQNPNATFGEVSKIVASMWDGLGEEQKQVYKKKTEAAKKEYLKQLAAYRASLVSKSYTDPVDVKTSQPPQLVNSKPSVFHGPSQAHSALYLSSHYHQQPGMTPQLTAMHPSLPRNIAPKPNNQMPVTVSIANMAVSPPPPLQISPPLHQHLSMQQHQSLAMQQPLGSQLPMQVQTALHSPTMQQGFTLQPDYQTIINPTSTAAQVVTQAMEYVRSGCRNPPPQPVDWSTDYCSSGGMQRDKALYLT
UniProt Q63829, whole entry: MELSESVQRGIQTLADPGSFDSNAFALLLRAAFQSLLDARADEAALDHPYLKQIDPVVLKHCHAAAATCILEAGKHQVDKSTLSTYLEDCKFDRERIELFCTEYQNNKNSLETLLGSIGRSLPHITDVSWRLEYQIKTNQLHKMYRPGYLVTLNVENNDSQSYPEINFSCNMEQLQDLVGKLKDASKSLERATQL
UniProt Q64467: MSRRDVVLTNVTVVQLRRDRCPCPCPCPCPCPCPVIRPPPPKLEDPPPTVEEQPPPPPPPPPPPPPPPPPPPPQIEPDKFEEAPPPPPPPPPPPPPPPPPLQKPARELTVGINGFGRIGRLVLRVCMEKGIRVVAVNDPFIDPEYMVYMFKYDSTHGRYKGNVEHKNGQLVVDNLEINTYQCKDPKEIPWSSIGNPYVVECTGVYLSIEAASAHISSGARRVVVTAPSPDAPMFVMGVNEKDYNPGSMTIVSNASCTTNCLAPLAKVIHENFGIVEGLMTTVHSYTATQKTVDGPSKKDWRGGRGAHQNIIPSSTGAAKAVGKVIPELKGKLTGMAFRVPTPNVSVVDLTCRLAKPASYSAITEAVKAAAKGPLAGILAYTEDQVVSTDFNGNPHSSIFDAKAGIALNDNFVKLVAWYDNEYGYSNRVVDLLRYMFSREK
UniProt Q62130: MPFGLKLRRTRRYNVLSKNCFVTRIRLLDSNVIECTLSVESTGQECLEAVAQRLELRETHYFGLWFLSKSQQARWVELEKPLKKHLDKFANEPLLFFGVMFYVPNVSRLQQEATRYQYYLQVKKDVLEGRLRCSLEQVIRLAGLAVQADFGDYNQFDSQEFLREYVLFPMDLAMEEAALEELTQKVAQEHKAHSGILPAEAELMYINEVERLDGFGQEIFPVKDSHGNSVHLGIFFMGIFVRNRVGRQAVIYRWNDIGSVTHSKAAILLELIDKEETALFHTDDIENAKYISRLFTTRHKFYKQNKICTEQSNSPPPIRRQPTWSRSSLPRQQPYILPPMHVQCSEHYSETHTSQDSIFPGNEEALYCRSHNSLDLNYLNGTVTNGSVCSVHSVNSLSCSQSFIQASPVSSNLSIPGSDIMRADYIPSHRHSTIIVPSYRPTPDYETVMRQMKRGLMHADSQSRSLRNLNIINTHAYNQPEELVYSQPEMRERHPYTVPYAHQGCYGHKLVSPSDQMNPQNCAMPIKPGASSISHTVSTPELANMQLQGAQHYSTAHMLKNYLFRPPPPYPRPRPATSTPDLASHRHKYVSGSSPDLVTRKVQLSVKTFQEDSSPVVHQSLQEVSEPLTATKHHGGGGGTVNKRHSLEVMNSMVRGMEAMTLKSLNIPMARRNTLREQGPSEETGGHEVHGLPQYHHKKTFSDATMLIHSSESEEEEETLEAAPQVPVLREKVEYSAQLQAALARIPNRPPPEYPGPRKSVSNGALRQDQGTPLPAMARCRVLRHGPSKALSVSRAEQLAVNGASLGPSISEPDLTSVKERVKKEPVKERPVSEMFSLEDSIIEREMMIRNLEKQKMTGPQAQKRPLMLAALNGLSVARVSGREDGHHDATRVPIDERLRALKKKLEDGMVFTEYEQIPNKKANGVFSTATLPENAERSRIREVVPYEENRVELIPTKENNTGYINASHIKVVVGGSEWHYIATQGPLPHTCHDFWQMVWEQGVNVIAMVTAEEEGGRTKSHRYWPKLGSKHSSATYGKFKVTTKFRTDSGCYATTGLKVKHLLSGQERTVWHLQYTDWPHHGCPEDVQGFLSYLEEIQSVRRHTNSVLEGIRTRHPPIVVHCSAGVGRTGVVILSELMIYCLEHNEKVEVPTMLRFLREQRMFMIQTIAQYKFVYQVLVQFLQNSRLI
UniProt Q66L42: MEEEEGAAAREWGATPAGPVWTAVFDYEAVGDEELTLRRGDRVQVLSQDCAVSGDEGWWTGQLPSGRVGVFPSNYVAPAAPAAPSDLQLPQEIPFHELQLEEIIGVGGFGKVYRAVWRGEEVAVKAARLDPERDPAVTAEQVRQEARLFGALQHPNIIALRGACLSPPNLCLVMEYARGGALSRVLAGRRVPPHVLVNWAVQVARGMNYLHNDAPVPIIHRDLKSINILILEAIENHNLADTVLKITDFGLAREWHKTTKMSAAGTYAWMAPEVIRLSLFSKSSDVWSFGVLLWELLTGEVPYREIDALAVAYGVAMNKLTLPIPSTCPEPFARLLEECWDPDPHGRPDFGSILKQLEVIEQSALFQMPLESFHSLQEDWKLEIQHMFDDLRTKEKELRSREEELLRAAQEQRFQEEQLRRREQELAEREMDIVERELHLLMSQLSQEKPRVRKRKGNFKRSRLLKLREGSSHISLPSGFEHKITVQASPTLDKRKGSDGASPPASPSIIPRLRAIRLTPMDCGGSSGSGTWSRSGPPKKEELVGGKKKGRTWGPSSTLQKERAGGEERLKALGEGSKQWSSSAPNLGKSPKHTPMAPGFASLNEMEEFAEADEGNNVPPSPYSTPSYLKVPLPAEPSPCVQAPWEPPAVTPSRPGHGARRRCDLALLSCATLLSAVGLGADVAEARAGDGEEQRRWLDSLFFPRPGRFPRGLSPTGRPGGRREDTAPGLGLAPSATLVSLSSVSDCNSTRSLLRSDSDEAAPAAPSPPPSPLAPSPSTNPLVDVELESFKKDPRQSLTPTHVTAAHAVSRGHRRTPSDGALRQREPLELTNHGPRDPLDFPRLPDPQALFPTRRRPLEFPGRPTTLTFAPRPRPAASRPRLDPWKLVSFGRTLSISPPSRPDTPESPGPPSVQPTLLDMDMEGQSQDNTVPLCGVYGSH
UniProt Q61858: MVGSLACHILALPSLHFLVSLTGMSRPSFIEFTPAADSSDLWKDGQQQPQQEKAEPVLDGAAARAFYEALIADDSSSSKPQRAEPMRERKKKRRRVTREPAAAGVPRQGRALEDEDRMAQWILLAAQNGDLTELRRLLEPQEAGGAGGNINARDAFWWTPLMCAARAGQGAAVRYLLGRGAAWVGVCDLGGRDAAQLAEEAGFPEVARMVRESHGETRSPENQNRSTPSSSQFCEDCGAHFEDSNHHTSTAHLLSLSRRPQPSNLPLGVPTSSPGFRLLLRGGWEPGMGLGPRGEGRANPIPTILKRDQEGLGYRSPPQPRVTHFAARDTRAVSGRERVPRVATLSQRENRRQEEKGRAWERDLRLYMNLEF
UniProt Q64520: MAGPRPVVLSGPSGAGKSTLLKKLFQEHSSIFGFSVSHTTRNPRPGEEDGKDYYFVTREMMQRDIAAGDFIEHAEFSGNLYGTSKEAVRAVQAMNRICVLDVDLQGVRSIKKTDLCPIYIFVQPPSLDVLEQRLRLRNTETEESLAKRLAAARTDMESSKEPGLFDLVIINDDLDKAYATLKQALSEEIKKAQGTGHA
UniProt Q61753: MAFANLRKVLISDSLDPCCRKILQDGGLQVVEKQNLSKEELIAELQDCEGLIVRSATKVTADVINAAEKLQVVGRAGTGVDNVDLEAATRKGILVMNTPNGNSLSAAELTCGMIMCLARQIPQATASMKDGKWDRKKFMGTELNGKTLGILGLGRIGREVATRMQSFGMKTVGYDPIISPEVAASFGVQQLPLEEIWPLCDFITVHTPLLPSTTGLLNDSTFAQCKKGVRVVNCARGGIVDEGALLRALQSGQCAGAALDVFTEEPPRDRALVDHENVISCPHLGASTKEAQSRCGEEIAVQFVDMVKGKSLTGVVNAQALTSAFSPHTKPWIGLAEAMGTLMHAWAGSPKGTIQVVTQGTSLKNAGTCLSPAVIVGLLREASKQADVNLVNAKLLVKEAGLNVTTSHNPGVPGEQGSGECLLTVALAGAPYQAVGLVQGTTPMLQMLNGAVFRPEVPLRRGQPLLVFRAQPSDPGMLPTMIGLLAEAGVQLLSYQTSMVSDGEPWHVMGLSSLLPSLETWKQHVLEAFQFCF
UniProt Q62010: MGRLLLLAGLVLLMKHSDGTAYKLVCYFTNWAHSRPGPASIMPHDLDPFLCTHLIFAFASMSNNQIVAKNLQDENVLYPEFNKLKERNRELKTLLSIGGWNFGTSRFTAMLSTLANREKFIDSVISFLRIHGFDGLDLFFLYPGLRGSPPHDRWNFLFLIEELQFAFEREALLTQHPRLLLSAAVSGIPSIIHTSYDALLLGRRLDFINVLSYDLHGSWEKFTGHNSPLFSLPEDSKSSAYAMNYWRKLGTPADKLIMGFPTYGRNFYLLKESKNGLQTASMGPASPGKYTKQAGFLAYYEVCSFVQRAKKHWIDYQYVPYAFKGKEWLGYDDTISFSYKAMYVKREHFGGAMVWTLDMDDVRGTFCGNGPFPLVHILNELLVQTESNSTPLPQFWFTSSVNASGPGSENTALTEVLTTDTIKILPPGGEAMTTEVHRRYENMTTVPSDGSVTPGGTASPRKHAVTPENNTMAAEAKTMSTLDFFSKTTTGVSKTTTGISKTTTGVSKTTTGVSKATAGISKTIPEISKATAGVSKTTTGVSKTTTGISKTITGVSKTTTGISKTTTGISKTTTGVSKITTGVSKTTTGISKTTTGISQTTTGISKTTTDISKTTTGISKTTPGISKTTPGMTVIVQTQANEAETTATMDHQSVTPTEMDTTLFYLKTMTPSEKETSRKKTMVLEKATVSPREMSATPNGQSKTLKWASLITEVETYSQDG
UniProt Q64267: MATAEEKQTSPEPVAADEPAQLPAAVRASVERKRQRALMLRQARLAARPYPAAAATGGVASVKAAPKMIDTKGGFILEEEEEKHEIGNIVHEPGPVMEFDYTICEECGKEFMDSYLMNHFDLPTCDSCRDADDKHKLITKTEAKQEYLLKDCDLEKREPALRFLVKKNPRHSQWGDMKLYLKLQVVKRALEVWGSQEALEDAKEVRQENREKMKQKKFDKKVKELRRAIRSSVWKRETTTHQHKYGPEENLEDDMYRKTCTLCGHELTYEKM

This is one part of the list. Most values lie at the level of the controls, where differences are scatter.

Compound in the test: CN[C@@H]1C[C@H]2O[C@@](C)([C@@H]1OC)n1c3ccccc3c3c4c(c5c6ccccc6n2c5c31)C(=O)NC4 [staurosporine]
The experiment in a line: log2 fold change of tryptic peptide abundance, ligand vs vehicle (limited proteolysis) (log2 ratio); higher = more trypsin-susceptible (destabilized). The settings on record: ligand concentration: 20 uM; sample: mouse liver crude lysate; replicate design: treated separately.
On to “UniProt Q69Z69 (peptide sequence: EIHGQIQTVK, peptide start residue: 140)”, for which the log2 fold change was -0.384.

For the target “UniProt Q66JW3 (peptide sequence: GQNPNATFGEVSK, peptide start residue: 243)”, the log2 fold change stood at 0.136.

“UniProt Q63829 (peptide sequence: QIDPVVLKHCHAAAATCILEAGK, peptide start residue: 53)”: the log2 fold change was -0.421.

With “UniProt Q64467 (peptide sequence: AGIALNDNFVK, peptide start residue: 403)”, the log2 fold change is -0.22.

On to “UniProt Q62130 (peptide sequence: ADYIPSHR, peptide start residue: 423)”, for which the log2 fold change stood at 0.167.

“UniProt Q66L42 (peptide sequence: ITVQASPTLDKR, peptide start residue: 507)”: the log2 fold change was -0.29.

“UniProt Q61858 (peptide sequence: AEPVLDGAAAR, peptide start residue: 54)”: the log2 fold change was -0.14.

Take “UniProt Q64520 (peptide sequence: QALSEEIKK, peptide start residue: 183)”: the log2 fold change was found to be 0.168.

Consider “UniProt Q61753 (peptide sequence: KVLISDSLDPCCRK, peptide start residue: 8)”, for which the log2 fold change is -0.296.

Regarding “UniProt Q62010 (peptide sequence: ATAGISK, peptide start residue: 730)”, the log2 fold change was determined as 0.252.

Take “UniProt Q64267 (peptide sequence: LAARPYPAAAATGGVASVK, peptide start residue: 45)”: the log2 fold change was -0.148.
